# Among all 52,000 sequences or so, about 210 (0.4%) were called active.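 The calls were made as follows: active = gene whose silencing raises cell survival under the drug, median off-target-corrected z-score across its silencing RNAs 2 or more; inactive = the rest.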 The list shows a part of the results.
# Test: Resistance to Poly (ADP-Ribose) Polymerase inhibitor: Gene Identification via Genome-wide siRNA Screen
# Conditions: mouse BRCA2 R2336H ES cells, olaparib, CellTiter-Glo viability; hits give high values
# Summary of the method: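 Mouse BRCA2 R2336H ES cells were reverse-transfected with siRNA (20 nM final), treated at 48 h with 500 nM olaparib, and read by CellTiter-Glo after 72 h. Scores: MAD-based z per siRNA, median per gene, seed off-target correction.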
row,Sequence,z-score
1,GGCUCAAAAUGUUCAAGCCTT against Trim12,inactive: 1.48
2,GCCAAGCCUUUAUCUACCGTT against 4932442K08Rik,inactive: -0.437
3,GGCCAGUUGAAUGUGUCUGTT against Acas2l,inactive: 0.409
4,GGAGAUCGAACUCAGCUCATT against C2ta,inactive: 0.719
5,GCUUUCAGUGAGGUACAAGTT against LOC432637,inactive: -0.263
6,GGAAAAAGCCAGGCCUUUUTT against Rod1,inactive: -0.287
7,CCCUUAAAAUGUGCAUAUCTT against 4432406C05Rik,inactive: -0.75
8,GGUCCUGGAGGAUACUUGGTT against Slc17a3,inactive: -0.287
9,GCACAACUUGUGGUAGAAGTT against 4933409G03Rik,inactive: 0.162
10,GCAGUUGUAGGAACCGAAATT against Cxxc5,inactive: 0.457
11,GUGGAAGACUUCACCGGACTT against 6530401D17Rik,inactive: -1.65
12,GCUGAGCUCGGCUUUUCUATT against BC012256,inactive: -0.115
13,GUCCCUCAAAAUGACGGACTT against Tlx3,inactive: 0.167
14,CCGUAUGAACGUGUGAUAATT against Rasef,inactive: -0.723
15,GGUACCAUUCUGCACUACATT against Kcnh6,inactive: 2.9
16,CCAGUAUACCUAUGACUGCTT against Apba3,inactive: 0.699
17,CCCUACGGACCGUAAAUAGTT against Psg16,inactive: -1.93
18,GCUCAACGAACAUUUAUAGTT against Usp26,inactive: -0.111
19,CCUUCAGUAGGAGUGCUGCTT against Peg3,inactive: 0.464
20,GGACUUUUAAGUUUGUAUGTT against Grpel1,inactive: 1.14
21,GGACUUCAUGGAGAGACGUTT against 4932432K03Rik,inactive: 1.1
22,CGGUUCUCUACAUUACUGCTT against Tm4sf11,inactive: -0.749

row,Sequence,z-score
1,GGACCUAGAGGAAGUGAAATT against Apoa1,active: 2.05
2,CCCUCAAUAGUGCUGGUUATT against Galp,inactive: 0.503
3,GGAGCAGGAGGUGUAUGUATT against Efs,inactive: 0.408
4,GCACAAAGAUCCCUCUUCATT against Olfr1162,inactive: 1.37
5,CGUUUCCUGCUCAAAUCCUTT against Abhd2,inactive: 0.857
6,GGAGCUUUCCACUGAGUUCTT against 1700012A03Rik,inactive: 0.928
7,CCUUGUGGACUCUUUAAUUTT against Idb2,inactive: 1.93
8,GCAGCUAAUGCAGAUAUUATT against Sucla2,inactive: -1.16
9,GCCUCAUCAAUCCACUGCATT against BC060632,inactive: 0.149
10,CGUAGUACCCAUGAAUUACTT against Adora2a,inactive: 0.234
11,CCUGUAGGGCUUUUUGAAATT against 2700083E18Rik,inactive: 0.492
12,GCCGGCUACUGUAUUGAAUTT against Mamdc2,inactive: 1.95
13,CCCAUGAUUCCAGAAAAGATT against BC021785,inactive: -0.63
14,GGUCAUCAAUGCCACAGCUTT against Lpo,inactive: 0.584
15,GCAUCACGUACGCCAUCAUTT against AI194318,inactive: -1.98
16,GGAUGUGACUAGAAUCAUCTT against Carkl,inactive: 1.84
17,GGUUAUCAGAGGUUUAGUUTT against 3230401D17Rik,inactive: 1.66
18,GCCAUUUACAUCUACAUUATT against Olfr1338,inactive: -0.219
19,GGAUUUUCUGGAGUUGAUGTT against Mcoln2,inactive: 1.6
20,CGAGAUUGAUAGUACAUUCTT against Olfr1229,inactive: 1
21,GGUCCAAUGGAUUUUGUUUTT against 1300014I06Rik,inactive: 0.261
22,GGUGGACGGACAUUUUGUUTT against Rab9,inactive: 0.739

# Taken from above.
# z-score, CCCUCAAUAGUGCUGGUUATT against Galp reads inactive: 0.503
# z-score, GGUUAUCAGAGGUUUAGUUTT against 3230401D17Rik reads inactive: 1.66

# More entries

row,Sequence,z-score
1,GGUUCACAGUAACCAUUGGTT against 5830416A07Rik,inactive: -0.652
2,GGAUCAAUUGACCACAAACTT against 6530407C02Rik,inactive: 0.175
3,GGAAUCCUGUUCCUUAUCATT against Slc43a3,inactive: 1.15
4,CGCAAUGUGUUGGGCCUCATT against F730038I15Rik,inactive: -1.21
5,GGCAGAUGCCAAUGAGGAATT against Cst3,inactive: -0.723
6,GAUUGGAACUUGUGGAUCUTT against Defb8,inactive: -1.28
7,GGACCAAGGCCUCACAAAATT against Nppb,inactive: 0.093
8,GGGCACACUGAUGUGGUCATT against Fem1b,inactive: 1.6
9,GCACAAGCCUCAAGACGUATT against Mgat4b,inactive: 0.986
10,GCUCCAUGAAUGUCCAACATT against 4930544G21Rik,inactive: 0.223
11,GGAAACACAUCAUUUGAUGTT against D1Bwg0491e,inactive: 1.66
12,GGUCCUCAAUGAAAUGAGATT against Krt1-12,inactive: -1.61
13,GGUAUCAAGGCUCUGGUGUTT against Il28ra,inactive: 1.34
14,GGAAGGCCAUUUCAACUAATT against Olfr1367,inactive: 0.314
15,GGCCAUCUUGAAUUUUUUATT against 2410002F23Rik,inactive: 0.317
16,GCAUCAUUAUCUCGGUACUTT against Izumo1,inactive: -0.671
17,GCUCAAUCGAUACUCAGAUTT against Lzts1,inactive: 0.449
18,GCAAUUUCUAUUUGGUGGGTT against B630019K06Rik,inactive: -0.201
19,GGUCUAUGCAAUAAAGGUUTT against Sphk2,inactive: -0.0369
20,GGCAAGACCCAUUAAAUGATT against B230219D22Rik,inactive: 0.0667
21,GGACGGAUCUGAAAGAUACTT against Zfp251,inactive: 0.921
22,ACAAUGGUGAGUAAUAGCATT against Olfr730,inactive: -0.137

# Part of the list above, with bars between the fields.
row | Sequence | z-score
3 | GGAAUCCUGUUCCUUAUCATT against Slc43a3 | inactive: 1.15
4 | CGCAAUGUGUUGGGCCUCATT against F730038I15Rik | inactive: -1.21
12 | GGUCCUCAAUGAAAUGAGATT against Krt1-12 | inactive: -1.61
22 | ACAAUGGUGAGUAAUAGCATT against Olfr730 | inactive: -0.137
